Measured values: the supplement of paper PMC10849652
This is one part of the list.

The chains behind the UniProt entries cited, without tags or fusion partners. Where a name states a change or a piece, a line headed by the entry shows the natural chain unless it says otherwise.
UniProt Q9UIW2: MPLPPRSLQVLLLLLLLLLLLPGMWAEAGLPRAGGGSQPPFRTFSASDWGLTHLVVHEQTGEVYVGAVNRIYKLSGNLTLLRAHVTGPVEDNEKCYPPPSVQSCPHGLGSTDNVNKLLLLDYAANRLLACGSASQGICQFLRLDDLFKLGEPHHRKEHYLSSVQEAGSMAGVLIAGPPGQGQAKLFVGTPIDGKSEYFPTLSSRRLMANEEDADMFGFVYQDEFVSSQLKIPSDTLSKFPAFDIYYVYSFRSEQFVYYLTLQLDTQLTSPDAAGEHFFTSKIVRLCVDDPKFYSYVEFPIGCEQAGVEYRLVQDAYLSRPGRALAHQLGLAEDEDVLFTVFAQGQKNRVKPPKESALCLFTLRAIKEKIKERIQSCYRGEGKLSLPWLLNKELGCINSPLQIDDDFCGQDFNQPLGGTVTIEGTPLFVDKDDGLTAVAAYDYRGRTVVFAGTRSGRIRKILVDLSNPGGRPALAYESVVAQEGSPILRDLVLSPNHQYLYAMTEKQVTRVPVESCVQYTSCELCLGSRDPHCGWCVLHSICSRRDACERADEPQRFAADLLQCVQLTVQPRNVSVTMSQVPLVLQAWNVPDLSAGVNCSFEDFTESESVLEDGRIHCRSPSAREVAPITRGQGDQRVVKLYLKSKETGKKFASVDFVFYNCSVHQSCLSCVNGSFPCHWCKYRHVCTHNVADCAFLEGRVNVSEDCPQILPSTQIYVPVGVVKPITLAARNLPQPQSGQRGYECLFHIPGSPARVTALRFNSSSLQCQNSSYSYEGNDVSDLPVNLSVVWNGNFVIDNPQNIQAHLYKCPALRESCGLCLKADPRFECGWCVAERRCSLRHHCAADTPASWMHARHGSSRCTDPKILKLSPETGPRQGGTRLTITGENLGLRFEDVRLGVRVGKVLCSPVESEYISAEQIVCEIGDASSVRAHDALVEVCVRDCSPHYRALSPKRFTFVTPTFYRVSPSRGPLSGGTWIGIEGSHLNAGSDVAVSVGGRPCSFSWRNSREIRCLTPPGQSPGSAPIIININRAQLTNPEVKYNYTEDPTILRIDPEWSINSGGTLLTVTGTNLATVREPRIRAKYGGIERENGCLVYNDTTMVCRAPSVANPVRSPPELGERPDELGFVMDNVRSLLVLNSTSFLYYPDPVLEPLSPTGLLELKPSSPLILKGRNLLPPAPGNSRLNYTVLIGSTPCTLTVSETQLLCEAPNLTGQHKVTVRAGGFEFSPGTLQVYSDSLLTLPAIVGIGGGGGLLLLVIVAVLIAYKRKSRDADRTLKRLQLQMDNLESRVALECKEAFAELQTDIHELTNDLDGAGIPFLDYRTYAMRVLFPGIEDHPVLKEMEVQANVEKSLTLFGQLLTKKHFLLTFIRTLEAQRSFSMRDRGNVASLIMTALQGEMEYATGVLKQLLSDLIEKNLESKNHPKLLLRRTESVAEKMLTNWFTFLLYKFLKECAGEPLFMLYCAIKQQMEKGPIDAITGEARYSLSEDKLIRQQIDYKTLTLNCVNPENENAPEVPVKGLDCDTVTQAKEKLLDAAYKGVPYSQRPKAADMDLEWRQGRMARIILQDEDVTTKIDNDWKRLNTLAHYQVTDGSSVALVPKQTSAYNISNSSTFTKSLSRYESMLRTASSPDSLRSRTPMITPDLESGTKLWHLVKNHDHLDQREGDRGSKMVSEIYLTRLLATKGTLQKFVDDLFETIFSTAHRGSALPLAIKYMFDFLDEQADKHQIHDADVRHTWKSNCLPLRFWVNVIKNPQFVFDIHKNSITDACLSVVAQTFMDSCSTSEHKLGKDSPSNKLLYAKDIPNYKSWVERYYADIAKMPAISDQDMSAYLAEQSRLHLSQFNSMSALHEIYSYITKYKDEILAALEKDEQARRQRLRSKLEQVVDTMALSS
UniProt P23284: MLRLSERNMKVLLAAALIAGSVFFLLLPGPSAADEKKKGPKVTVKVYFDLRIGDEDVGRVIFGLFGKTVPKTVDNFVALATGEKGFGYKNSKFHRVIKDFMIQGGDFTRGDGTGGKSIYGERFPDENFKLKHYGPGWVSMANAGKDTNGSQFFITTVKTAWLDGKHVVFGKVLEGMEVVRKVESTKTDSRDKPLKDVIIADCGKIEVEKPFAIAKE
UniProt Q9NVS9: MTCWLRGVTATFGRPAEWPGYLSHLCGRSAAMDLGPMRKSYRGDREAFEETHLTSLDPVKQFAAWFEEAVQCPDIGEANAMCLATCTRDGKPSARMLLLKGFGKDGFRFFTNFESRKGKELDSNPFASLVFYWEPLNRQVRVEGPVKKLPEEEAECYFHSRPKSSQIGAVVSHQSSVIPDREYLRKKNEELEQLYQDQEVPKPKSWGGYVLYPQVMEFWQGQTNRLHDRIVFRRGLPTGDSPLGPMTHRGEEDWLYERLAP
UniProt Q96CD2: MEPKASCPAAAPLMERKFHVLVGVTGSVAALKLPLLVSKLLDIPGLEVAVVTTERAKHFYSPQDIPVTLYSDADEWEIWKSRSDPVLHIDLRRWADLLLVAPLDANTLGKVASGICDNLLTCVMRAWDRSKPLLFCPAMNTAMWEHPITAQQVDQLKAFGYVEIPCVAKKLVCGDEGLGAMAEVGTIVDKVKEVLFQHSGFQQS
UniProt Q8IY26: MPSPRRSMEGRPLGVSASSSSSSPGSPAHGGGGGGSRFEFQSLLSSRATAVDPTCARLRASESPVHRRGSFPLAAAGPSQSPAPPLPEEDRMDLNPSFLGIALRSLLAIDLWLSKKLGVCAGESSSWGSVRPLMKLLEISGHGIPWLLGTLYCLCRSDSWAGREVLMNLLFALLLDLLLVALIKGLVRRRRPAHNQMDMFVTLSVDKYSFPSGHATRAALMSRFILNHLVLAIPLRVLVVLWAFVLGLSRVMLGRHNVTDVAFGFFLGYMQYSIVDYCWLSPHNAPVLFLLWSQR
UniProt Q9H2U2: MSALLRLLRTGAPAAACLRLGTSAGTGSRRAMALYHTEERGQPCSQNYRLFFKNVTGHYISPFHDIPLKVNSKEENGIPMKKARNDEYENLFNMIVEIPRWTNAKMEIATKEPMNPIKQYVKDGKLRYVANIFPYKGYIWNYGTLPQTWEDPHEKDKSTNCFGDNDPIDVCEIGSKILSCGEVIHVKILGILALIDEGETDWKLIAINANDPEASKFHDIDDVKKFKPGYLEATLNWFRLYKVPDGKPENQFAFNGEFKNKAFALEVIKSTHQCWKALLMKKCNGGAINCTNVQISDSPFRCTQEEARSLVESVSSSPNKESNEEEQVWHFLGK
UniProt Q8N490: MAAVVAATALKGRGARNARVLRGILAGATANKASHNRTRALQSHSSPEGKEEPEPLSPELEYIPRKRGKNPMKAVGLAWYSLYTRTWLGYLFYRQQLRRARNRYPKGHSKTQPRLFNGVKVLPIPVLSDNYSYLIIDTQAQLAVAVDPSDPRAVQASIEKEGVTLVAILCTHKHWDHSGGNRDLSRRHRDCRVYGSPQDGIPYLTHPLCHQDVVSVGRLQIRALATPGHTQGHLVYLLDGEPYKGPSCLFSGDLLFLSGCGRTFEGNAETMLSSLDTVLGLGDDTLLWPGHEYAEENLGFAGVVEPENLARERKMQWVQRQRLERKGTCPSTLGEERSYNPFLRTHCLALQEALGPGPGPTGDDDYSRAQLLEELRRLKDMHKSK
UniProt P13797: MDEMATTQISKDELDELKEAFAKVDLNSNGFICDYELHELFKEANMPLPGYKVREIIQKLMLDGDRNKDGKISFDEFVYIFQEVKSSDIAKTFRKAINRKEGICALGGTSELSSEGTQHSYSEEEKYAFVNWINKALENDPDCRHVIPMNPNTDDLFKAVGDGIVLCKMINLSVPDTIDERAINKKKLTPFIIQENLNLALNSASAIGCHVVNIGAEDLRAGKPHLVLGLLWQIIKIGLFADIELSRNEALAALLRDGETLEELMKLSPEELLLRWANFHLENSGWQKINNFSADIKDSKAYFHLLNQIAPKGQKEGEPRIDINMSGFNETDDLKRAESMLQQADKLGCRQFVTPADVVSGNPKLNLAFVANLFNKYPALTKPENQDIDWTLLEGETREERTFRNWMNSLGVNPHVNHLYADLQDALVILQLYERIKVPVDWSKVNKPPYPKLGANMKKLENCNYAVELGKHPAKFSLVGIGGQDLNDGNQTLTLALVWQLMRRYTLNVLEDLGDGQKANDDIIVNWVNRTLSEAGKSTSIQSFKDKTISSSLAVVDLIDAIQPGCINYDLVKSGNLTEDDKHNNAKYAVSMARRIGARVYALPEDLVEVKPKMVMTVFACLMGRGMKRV
UniProt O14802: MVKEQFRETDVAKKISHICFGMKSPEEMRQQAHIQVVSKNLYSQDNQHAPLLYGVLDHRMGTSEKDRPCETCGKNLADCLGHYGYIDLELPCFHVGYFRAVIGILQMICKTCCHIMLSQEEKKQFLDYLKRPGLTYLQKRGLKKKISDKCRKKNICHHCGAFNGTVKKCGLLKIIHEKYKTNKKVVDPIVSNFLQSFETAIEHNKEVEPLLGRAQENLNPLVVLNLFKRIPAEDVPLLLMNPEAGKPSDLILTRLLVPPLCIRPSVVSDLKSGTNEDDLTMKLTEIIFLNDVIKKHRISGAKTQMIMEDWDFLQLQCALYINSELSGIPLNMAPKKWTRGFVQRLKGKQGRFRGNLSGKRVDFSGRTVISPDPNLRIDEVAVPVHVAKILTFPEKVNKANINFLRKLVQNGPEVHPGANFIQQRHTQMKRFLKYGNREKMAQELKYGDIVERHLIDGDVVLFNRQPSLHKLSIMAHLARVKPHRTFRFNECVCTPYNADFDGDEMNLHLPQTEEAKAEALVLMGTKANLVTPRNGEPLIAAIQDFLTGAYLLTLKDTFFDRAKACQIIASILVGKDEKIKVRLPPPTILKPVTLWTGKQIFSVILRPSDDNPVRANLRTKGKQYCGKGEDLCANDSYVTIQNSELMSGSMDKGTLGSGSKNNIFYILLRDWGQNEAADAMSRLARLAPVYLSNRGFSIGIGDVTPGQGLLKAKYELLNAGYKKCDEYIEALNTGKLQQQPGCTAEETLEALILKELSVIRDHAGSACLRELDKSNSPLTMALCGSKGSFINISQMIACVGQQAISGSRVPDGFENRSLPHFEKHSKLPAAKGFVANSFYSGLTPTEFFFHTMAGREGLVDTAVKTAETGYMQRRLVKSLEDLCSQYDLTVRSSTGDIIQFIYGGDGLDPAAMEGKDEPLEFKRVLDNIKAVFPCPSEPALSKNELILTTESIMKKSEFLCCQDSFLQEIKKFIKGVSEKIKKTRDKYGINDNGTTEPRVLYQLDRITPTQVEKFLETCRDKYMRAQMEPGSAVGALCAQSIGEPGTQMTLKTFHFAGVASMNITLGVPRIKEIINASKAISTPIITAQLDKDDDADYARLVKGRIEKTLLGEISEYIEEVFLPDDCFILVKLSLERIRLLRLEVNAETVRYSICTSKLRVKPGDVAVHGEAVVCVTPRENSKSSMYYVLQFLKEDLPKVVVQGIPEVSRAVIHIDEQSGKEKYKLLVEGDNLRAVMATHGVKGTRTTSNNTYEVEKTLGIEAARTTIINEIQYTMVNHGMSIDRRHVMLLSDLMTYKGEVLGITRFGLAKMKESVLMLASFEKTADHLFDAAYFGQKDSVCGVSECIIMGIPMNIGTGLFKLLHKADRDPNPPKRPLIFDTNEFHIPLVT
UniProt P49005: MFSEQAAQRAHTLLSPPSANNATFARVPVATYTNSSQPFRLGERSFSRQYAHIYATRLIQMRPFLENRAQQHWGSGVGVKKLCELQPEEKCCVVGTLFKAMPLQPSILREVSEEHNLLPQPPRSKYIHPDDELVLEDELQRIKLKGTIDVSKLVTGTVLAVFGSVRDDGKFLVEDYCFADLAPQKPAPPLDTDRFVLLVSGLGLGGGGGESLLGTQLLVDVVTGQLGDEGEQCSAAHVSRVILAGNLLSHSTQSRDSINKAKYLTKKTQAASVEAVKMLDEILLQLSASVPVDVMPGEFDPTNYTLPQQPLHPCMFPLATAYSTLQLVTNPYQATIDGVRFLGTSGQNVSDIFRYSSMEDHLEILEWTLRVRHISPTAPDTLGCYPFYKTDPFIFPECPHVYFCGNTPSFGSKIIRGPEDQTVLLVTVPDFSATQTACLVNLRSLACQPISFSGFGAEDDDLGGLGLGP
UniProt O43660: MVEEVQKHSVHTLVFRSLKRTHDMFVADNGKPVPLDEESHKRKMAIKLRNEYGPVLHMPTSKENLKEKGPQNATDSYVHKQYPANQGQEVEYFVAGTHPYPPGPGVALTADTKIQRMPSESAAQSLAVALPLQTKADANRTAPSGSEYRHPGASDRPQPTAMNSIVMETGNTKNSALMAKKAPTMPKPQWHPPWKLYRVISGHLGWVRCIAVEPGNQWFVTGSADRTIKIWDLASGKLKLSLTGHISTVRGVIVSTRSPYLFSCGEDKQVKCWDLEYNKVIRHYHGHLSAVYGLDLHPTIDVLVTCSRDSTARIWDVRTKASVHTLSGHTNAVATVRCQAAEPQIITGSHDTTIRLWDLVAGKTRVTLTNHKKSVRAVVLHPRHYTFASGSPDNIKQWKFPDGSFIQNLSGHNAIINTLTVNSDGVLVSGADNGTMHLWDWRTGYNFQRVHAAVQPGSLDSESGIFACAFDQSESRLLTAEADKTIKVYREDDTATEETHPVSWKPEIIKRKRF

Legend:
Experiment in all cases: log2 fold change, soluble protein after heating vs DMSO (PISA); higher = thermal stabilisation; K562 cells, 10 uM, 30 min; active = over 0.2 and 3.5 SD of the protein, either way, in both replicates (recomputed)
saracatinib = compound: CN1CCN(CCOc2cc(OC3CCOCC3)c3c(Nc4c(Cl)ccc5c4OCO5)ncnc3c2)CC1 [saracatinib]
How it was run: (§1)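 K562 cells at 2×10^6 cells/mL were treated for 30 min with 10 μM compound, and aliquots were heated for 3 min over 48°C-58°C before pooling. Extraction used PBS with 0.5% NP-40 at 4°C, and soluble protein was the supernatant after 21,000xg for 90 min, measured by TMTpro 16plex LC-MS/MS with channel sums equalised. Thermal stability values, relative to control samples and from duplicates, are log2 fold changes.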

sotrastaurin = compound: CN1CCN(c2nc(C3=C(c4c[nH]c5ccccc45)C(=O)NC3=O)c3ccccc3n2)CC1 [sotrastaurin]
How it was run: as §1

alvocidib = compound: CN1CC[C@H](c2c(O)cc(O)c3c(=O)cc(-c4ccccc4Cl)oc23)[C@H](O)C1 [alvocidib]
How it was run: as §1

Tubastatin A = compound: CN1CCc2c(c3ccccc3n2Cc2ccc(C(=O)NO)cc2)C1 [Tubastatin A]
How it was run: as §1

[1] = compound: CNC(=O)C1=CC=CC=C1NC2=NC(=NC=C2Cl)NC3=C(C=C(C=C3)N4CCOCC4)OC
How it was run: as §1

defactinib = compound: CNC(=O)c1ccc(Nc2ncc(C(F)(F)F)c(NCc3nccnc3N(C)S(C)(=O)=O)n2)cc1 [defactinib]
How it was run: as §1

rucaparib = compound: CNCc1ccc(-c2[nH]c3cc(F)cc4c3c2CCNC4=O)cc1 [rucaparib]
How it was run: as §1

[2] = compound: CNc1nc(-c2ccc3c(N)n[nH]c3c2)cc(N2C[C@@H](C(=O)NC3CCCCC3)CC[C@H]2C)n1
How it was run: as §1

encorafenib = compound: COC(=O)N[C@@H](C)CNc1nccc(-c2cn(C(C)C)nc2-c2cc(Cl)cc(NS(C)(=O)=O)c2F)n1 [encorafenib]
How it was run: as §1

[3] = compound: COC(=O)[C@H](CCSC)NC(=O)C1=C(C=C(C=C1)NC[C@H](CS)N)C2=CC=CC=C2
How it was run: as §1

Row | Target | log2 fold change (saracatinib) | log2 fold change (sotrastaurin) | log2 fold change (alvocidib) | log2 fold change (Tubastatin A) | log2 fold change [1] | log2 fold change (defactinib) | log2 fold change (rucaparib) | log2 fold change [2] | log2 fold change (encorafenib) | log2 fold change [3]
1 | PPFIA2 (UniProt O75334) | inactive: -0.163 | inactive: -0.158 | inactive: -0.071 | inactive: 0.139 | inactive: 0.02 | inactive: 0.12 | inactive: 0.129 | inactive: -0.01 | inactive: 0.151 | inactive: 0.103
2 | PLXNA1 (UniProt Q9UIW2) | inactive: -0.013 | inactive: 0.005 | inactive: -0.045 | inactive: 0.008 | inactive: -0.047 | inactive: -0.014 | inactive: -0.002 | inactive: 0.02 | inactive: -0.027 | inactive: 0.009
3 | PLS1 (UniProt Q14651) | inactive: -0.02 | inactive: -0.017 | inactive: -0.077 | inactive: -0.002 | inactive: -0.019 | inactive: -0.055 | inactive: 0.026 | inactive: -0.02 | inactive: -0.033 | inactive: -0.028
4 | PPIB (UniProt P23284) | inactive: -0.063 | inactive: -0.01 | inactive: 0.049 | inactive: 0 | inactive: -0.008 | inactive: 0.054 | inactive: 0.007 | inactive: 0.002 | inactive: 0.05 | inactive: -0.001
5 | PNPO (UniProt Q9NVS9) | inactive: 0.019 | inactive: -0.057 | inactive: -0.04 | inactive: -0.034 | inactive: -0.004 | inactive: -0.033 | inactive: 0.034 | inactive: -0.01 | inactive: -0.033 | inactive: 0.057
6 | PON2 (UniProt Q15165) | inactive: -0.105 | inactive: -0.005 | inactive: 0.052 | inactive: 0.026 | inactive: -0.009 | inactive: -0.013 | inactive: -0.051 | inactive: 0.032 | inactive: -0.031 | inactive: 0.013
7 | POLR2G (UniProt P62487) | inactive: 0.041 | inactive: -0.016 | active: 0.328 | inactive: -0.045 | inactive: 0.003 | inactive: 0.154 | inactive: 0.039 | inactive: 0.042 | inactive: -0.016 | inactive: -0.03
8 | POU2F1 isoform 6 (UniProt P14859) | inactive: -0.01 | inactive: -0.114 | inactive: -0.083 | inactive: 0.089 | inactive: -0.086 | inactive: -0.13 | inactive: 0.003 | inactive: 0.063 | inactive: 0.074 | inactive: -0.009
9 | PPCDC (UniProt Q96CD2) | inactive: -0.039 | inactive: -0.011 | inactive: -0.033 | inactive: 0.033 | inactive: -0.055 | inactive: -0.077 | inactive: -0.09 | inactive: -0.045 | inactive: 0.002 | inactive: -0.019
10 | POLR1C (UniProt O15160) | inactive: -0.104 | inactive: -0.115 | inactive: -0.118 | inactive: 0.054 | inactive: 0.025 | inactive: -0.08 | inactive: 0.172 | inactive: 0.072 | inactive: 0.123 | inactive: 0.049
11 | POLG2 (UniProt Q9UHN1) | inactive: 0.007 | inactive: 0.059 | inactive: 0.028 | inactive: 0.003 | inactive: 0.026 | inactive: 0 | inactive: 0.034 | inactive: -0.036 | inactive: -0.027 | inactive: 0.038
12 | PPM1B (UniProt O75688) | inactive: 0 | inactive: 0.031 | inactive: -0.05 | inactive: -0.022 | inactive: 0.008 | inactive: -0.023 | inactive: -0.031 | inactive: -0.015 | inactive: -0.01 | inactive: -0.029
13 | PLPP6 (UniProt Q8IY26) | inactive: -0.134 | inactive: 0.039 | inactive: 0.121 | inactive: -0.084 | inactive: -0.064 | inactive: -0.141 | – | inactive: -0.137 | – | inactive: 0.107
14 | PPIH (UniProt O43447) | inactive: -0.003 | inactive: 0.013 | inactive: -0.03 | inactive: 0.012 | inactive: -0.005 | inactive: -0.039 | inactive: -0.014 | inactive: -0.006 | inactive: 0.017 | inactive: 0.042
15 | PLXNB2 (UniProt O15031) | inactive: -0.012 | inactive: 0.067 | inactive: -0.053 | inactive: -0.008 | inactive: -0.022 | inactive: -0.093 | inactive: 0.021 | inactive: 0 | inactive: -0.001 | inactive: -0.017
16 | PPCS (UniProt Q9HAB8) | inactive: 0.004 | inactive: 0.043 | inactive: 0.02 | inactive: 0.007 | inactive: -0.008 | inactive: -0.037 | inactive: -0.025 | inactive: -0.009 | inactive: -0.02 | inactive: -0.042
17 | PLOD3 (UniProt O60568) | inactive: -0.069 | inactive: 0.008 | inactive: 0.021 | inactive: 0.012 | inactive: 0.013 | inactive: 0.066 | inactive: 0.011 | inactive: 0.026 | inactive: 0.061 | inactive: -0.024
18 | PPA2 (UniProt Q9H2U2) | inactive: 0.006 | inactive: 0.055 | inactive: -0.018 | inactive: -0.005 | inactive: 0.037 | inactive: 0.038 | inactive: -0.081 | inactive: -0.075 | inactive: 0 | inactive: 0.002
19 | PNO1 (UniProt Q9NRX1) | inactive: -0.117 | inactive: -0.057 | inactive: 0.154 | inactive: 0.231 | inactive: 0.003 | inactive: 0.126 | inactive: 0.125 | inactive: 0.095 | inactive: 0.163 | inactive: -0.074
20 | PPAN isoform 3 (UniProt Q9NQ55) | inactive: -0.069 | inactive: 0.01 | inactive: 0.216 | inactive: 0.157 | inactive: -0.061 | inactive: 0.584 | inactive: 0.277 | inactive: 0.148 | inactive: 0.19 | inactive: -0.083
21 | PNKD isoform 2 (UniProt Q8N490) | inactive: -0.038 | inactive: 0.068 | inactive: 0 | inactive: 0.049 | inactive: 0.017 | inactive: -0.071 | inactive: -0.065 | inactive: -0.156 | inactive: 0.017 | inactive: -0.003
22 | PLS3 (UniProt P13797) | inactive: 0.033 | inactive: 0.046 | inactive: -0.033 | inactive: 0.001 | inactive: 0.029 | inactive: -0.007 | inactive: -0.115 | inactive: -0.014 | inactive: -0.003 | inactive: 0.025
23 | POLR3A (UniProt O14802) | inactive: -0.067 | inactive: -0.212 | inactive: -0.073 | inactive: 0.071 | inactive: 0.017 | inactive: -0.024 | inactive: 0.089 | inactive: -0.02 | inactive: 0.076 | inactive: -0.059
24 | POLR1B isoform 3 (UniProt Q9H9Y6) | inactive: -0.001 | inactive: 0.125 | inactive: 0.085 | inactive: 0.098 | inactive: -0.065 | inactive: 0.022 | – | inactive: 0.005 | – | inactive: 0.014
25 | PLG (UniProt P00747) | inactive: 0.248 | inactive: 0.278 | inactive: -0.201 | inactive: -0.145 | inactive: 0.1 | inactive: -0.244 | – | inactive: 0.094 | – | inactive: 0.291
26 | PLOD1 isoform 2 (UniProt Q02809) | inactive: -0.083 | inactive: -0.058 | inactive: 0.072 | inactive: 0.075 | inactive: -0.005 | inactive: 0.081 | inactive: 0.12 | inactive: 0.03 | inactive: 0.092 | inactive: -0.02
27 | POLD2 (UniProt P49005) | inactive: 0.031 | inactive: -0.083 | inactive: -0.111 | inactive: 0.069 | inactive: 0.023 | inactive: -0.07 | inactive: -0.044 | inactive: 0 | inactive: -0.003 | inactive: 0
28 | PLRG1 (UniProt O43660) | inactive: 0.032 | inactive: -0.028 | inactive: 0.102 | inactive: -0.02 | inactive: -0.067 | inactive: 0.016 | inactive: 0.022 | inactive: -0.121 | inactive: -0.018 | inactive: 0.014
29 | POMGNT1 isoform 2 (UniProt Q8WZA1) | inactive: -0.058 | inactive: 0.095 | inactive: -0.046 | inactive: -0.014 | inactive: -0.007 | inactive: 0.04 | inactive: -0.146 | inactive: -0.057 | inactive: 0.05 | inactive: -0.003
30 | POLR2F (UniProt P61218) | inactive: -0.029 | inactive: -0.062 | inactive: -0.019 | inactive: 0.063 | inactive: 0.063 | inactive: 0.034 | – | inactive: -0.197 | – | inactive: 0.026

Single records, as listed above. Values in the order: log2 fold change (saracatinib) | log2 fold change (sotrastaurin) | log2 fold change (alvocidib) | log2 fold change (Tubastatin A) | log2 fold change [1] | log2 fold change (defactinib) | log2 fold change (rucaparib) | log2 fold change [2] | log2 fold change (encorafenib) | log2 fold change [3]
POLR2F (UniProt P61218) as listed: inactive: -0.029 | inactive: -0.062 | inactive: -0.019 | inactive: 0.063 | inactive: 0.063 | inactive: 0.034 | – | inactive: -0.197 | – | inactive: 0.026
PPFIA2 (UniProt O75334) as listed: inactive: -0.163 | inactive: -0.158 | inactive: -0.071 | inactive: 0.139 | inactive: 0.02 | inactive: 0.12 | inactive: 0.129 | inactive: -0.01 | inactive: 0.151 | inactive: 0.103
